Measurements reported in PubChem BioAssay AID1053208 (Peter MacCallum Cancer Centre, 2014)
Here is an unselected part of about 17,000 deposited reagents. 788 of them (4.7%) were called active. 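Calls rest on z-score classes alone; an extra cut-off of viability at most 70% of control was not applied to them.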 Entries without a mark were called inactive. Not all columns of the deposit are shown.

Purpose: 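Find knock-downs that sensitise mouse osteosarcoma cells to doxorubicin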 (primary screen)
Cell system: mouse osteosarcoma cells, early-passage culture from an engineered mouse model of fibroblastic bone tumour
Reagent: siRNA pool against mouse genes, 40 nM
Timing: about 120 h (48 h before drug, then 72 h with drug)
Challenge: doxorubicin 100 nM for 72 h, roughly 30-40% inhibitory dose
Detection: 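Luminescent ATP signal taken as viability with or without 100 nM doxorubicin for 72 h; mean of two wells set against non-targeting siRNA and turned into robust z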
Scale: viability z-score with doxorubicin: higher = more viable cells under doxorubicin; viability z-score without drug: higher = more viable cells with knock-down alone
Hit rule: 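a pool counts as active when its viability z-score with doxorubicin is -2 or below and its z-score without drug lies between -2 and 2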

{"Gene":"Pros1","combined z-score class":"no change with or without drug","viability z-score with doxorubicin":1.69,"viability z-score without drug":-0.17}
{"Gene":"Hmbs","combined z-score class":"no change with or without drug","viability z-score with doxorubicin":0.79,"viability z-score without drug":-0.84}
{"Gene":"Adm2","combined z-score class":"no change with or without drug","viability z-score with doxorubicin":-0.22,"viability z-score without drug":-0.51}
{"Gene":"Mettl23","combined z-score class":"no change with or without drug","viability z-score with doxorubicin":-0.45,"viability z-score without drug":0.17}
{"Gene":"Slc25a40","combined z-score class":"no change with or without drug","viability z-score with doxorubicin":-0.22,"viability z-score without drug":1.01}
{"Gene":"ITPR3","combined z-score class":"no change with or without drug","viability z-score with doxorubicin":-0.22,"viability z-score without drug":-0.17}

Continued, starting with the last 2 of the part before.
{"Gene":"Slc25a40","combined z-score class":"no change with or without drug","viability z-score with doxorubicin":-0.22,"viability z-score without drug":1.01}
{"Gene":"ITPR3","combined z-score class":"no change with or without drug","viability z-score with doxorubicin":-0.22,"viability z-score without drug":-0.17}
{"Gene":"1700020M10Rik","combined z-score class":"no change with or without drug","viability z-score with doxorubicin":0,"viability z-score without drug":-0.17}
{"Gene":"Kcna4","combined z-score class":"no change with or without drug","viability z-score with doxorubicin":-0.9,"viability z-score without drug":-0.51}
{"Gene":"Cygb","combined z-score class":"no change with or without drug","viability z-score with doxorubicin":0,"viability z-score without drug":-1.52}
{"Gene":"Igflr1","combined z-score class":"no change with or without drug","viability z-score with doxorubicin":-0.22,"viability z-score without drug":-0.84}
{"Gene":"Cln3","combined z-score class":"no change with or without drug","viability z-score with doxorubicin":-0.22,"viability z-score without drug":-1.18}
{"Gene":"Nudt19","combined z-score class":"no change with or without drug","viability z-score with doxorubicin":1.69,"viability z-score without drug":0.17}
